## Results of single-concentration screens

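Assay of Toxoplasma gondii numbers, read through their beta-galactosidase reporter with a colour substrate. Tested at 50 µM. Higher reads as fewer parasites (inferred from which compounds were picked for retests). About 18,000 compounds were tested under these conditions; 0.94% (about 170) showed 50% or more at least once.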

Each number is a percent effect as filed.
The record does not define 0% and 100%; most values in the screen are far below 50% and negative numbers occur (in some assays of this library far below -100).
This is an unselected part of the compounds tested.

Compound,Percent Effect
Cc1nc(C#N)c(NCc2cccnc2)o1,29.53%
COc1cccc2ccc(CN3CC[C@@H](O)C3)nc12,11.26%
CCCc1cc(C(=O)N2CCCN(C)CC2)cs1,4.555%
N#CCCN(CCC#N)C(=O)COC(=O)c1ccoc1,-2.438%
O=C(CCN1CCN(CCO)CC1)Nc1ccccc1,-9.066%
C=C(C)CNC(=O)Nc1cnn(CCN(C)C)c1,-3.696%
Cc1nc(SCC(N)=O)c(C#N)c2c1CCCC2,-0.8824%
CNC(CO)c1ccccc1 (stereo not given),15.25%
CCOCCCNC(=O)c1ccc(C#N)cc1,12.7%
O=C(Nc1ccc(Cl)cn1)c1ccncc1,-1.701%
CN(C)C1CN(C(=O)Nc2cccc(OCCF)c2)C1,9.274%
CN1C(=O)Cc2ccccc2C1C(=O)N1CCCC1 (stereo not given),21.52%
Cc1c(O)cccc1C(=O)NC1CCOC1 (stereo not given),20.64%
C[C@@H]1CN(Cc2nnc(C3CC3)o2)C[C@]1(C)O,-4.859%
CCNCc1cccc(NC(=O)C(C)COC)c1 (stereo not given),9.362%
CCc1ccccc1NC(=O)CN,19.26%
COc1ccc2oc(CNC(C)(CO)CO)cc2c1,4.082%
Cn1c(=O)[nH]c(=O)c2ccc(C(=O)N3CCCC3)nc21,1.267%
O=S(=O)(NC1CCCC1)C1CCCNC1 (stereo not given),4.384%
CNC(=O)NC(=O)CN1CCCCC1CNS(C)(=O)=O (stereo not given),6.614%
Cc1cc(C(=O)NC2CCC(=O)N(C)C2)on1 (stereo not given),-9.252%
O=C(Cc1ccsc1)N1CCN(c2ncccn2)CC1,18.28%
CCO[C@H]1CN(C)C[C@@H]1NC(=O)c1cnc(CC)nc1,7.652%
CCN(C)CCCO,-0.09236%
COC[C@@H](O)Cn1ccnc1C(=O)c1ccccc1,-4.542%
CCSc1ccc(NC(=O)NCCN(C)C)cn1,-9.768%
Cc1n[nH]c(SCC(=O)N[C@@H]2CCNC[C@H]2O)n1,-12.75%
CC(=O)c1cc(CN2CC(N3CCOCC3)C2)n(C)c1,0.9252%
CC(C)Oc1ccc(CNC(=O)C2CCC(=O)N2)cc1 (stereo not given),-24.72%
CCNS(=O)(=O)C1CCN(Cc2cc(C#N)cs2)C1 (stereo not given),-0.08099%
CC(CN)N(C)C(=O)c1cccc(F)c1Cl (stereo not given),-1.589%
O=C(C1CCOCC1)N1CCC(Oc2ccccc2)C1 (stereo not given),-5.247%
Nc1nc(C(F)(F)F)ns1,-12.07%
Cc1noc(C)c1CC(=O)NC1CC1,-6.696%
CC(C)Cn1cncc1CNC(=O)CN1CCOCC1,16.24%
CCN(CC)c1ccc(CN)cc1,23.86%
CC(C(N)=O)N1CCN(Cc2ccc(Cl)c(F)c2)CC1 (stereo not given),7.534%
Cn1c(SC2COC(=O)C2)nnc1-c1ccoc1 (stereo not given),2.755%
CN1C[C@@H]2CN(C(=O)[C@@H](O)Cc3ccccc3)C[C@@H]2C1,12.09%
CCOc1ncccc1CNc1cn[nH]c(=O)c1Cl,-3.347%
CCOC1CCN(C(=O)C(O)c2ccc(F)cc2)CC1 (stereo not given),27.56%
CNCC1COc2ccccc2O1 (stereo not given),-11.36%
COCCOCC(=O)NCc1c(C)cc(C)nc1OC,-2.879%
Cc1cc(C)nc(N2CCOCC2C(N)=O)n1 (stereo not given),13.87%
C1CNC[C@@H](CN2CCOCC2)C1,-3.14%
CNCC(=O)Nc1cccc(OC)c1,3.135%
COc1cccc(CNC(=O)CCn2ccc(C)n2)c1,32.83%
NC1COC2(CCC2)C1 (stereo not given),-25.07%
N[C@@H]1CC[C@H](C(=O)NCCOCc2ccccc2)C1,-16.04%
NCC(O)c1c(Cl)cccc1Cl (stereo not given),-11.81%
c1cc2c(cc1CNC1CC1)OCO2,12.42%
CCc1cc(N2CCN(Cc3ncc[nH]3)CC2)ncn1,-21.9%
N#Cc1cccc2c1NC(=O)C2,0.6665%
CCNC(=O)c1ccnc(-c2ccccc2CO)c1,-2.531%
C1COCC(C2CC2)N1 (stereo not given),2.543%
CN(C)C(=O)CCCSc1nnc(C(F)F)n1C,18.24%
CCOC(=O)c1sc(NC(=O)CC)nc1C,-15.04%
N#CCC1(O)CN(Cc2ccc3c(c2)CCO3)C1,-12.71%
Cc1cc(CN)nc(N(C)C)n1,87.02%
Cc1n[nH]c(C)c1S(=O)(=O)N(C)CC(=O)NC1CC1,-8.049%

For reference, 7 entries once more:

| Compound | Percent Effect |
|---|---|
| `O=C(Nc1ccc(Cl)cn1)c1ccncc1` | -1.701% |
| `C=C(C)CNC(=O)Nc1cnn(CCN(C)C)c1` | -3.696% |
| `O=C(Cc1ccsc1)N1CCN(c2ncccn2)CC1` | 18.28% |
| `COc1cccc(CNC(=O)CCn2ccc(C)n2)c1` | 32.83% |
| `COc1cccc2ccc(CN3CC[C@@H](O)C3)nc12` | 11.26% |
| `N[C@@H]1CC[C@H](C(=O)NCCOCc2ccccc2)C1` | -16.04% |
| `CCNS(=O)(=O)C1CCN(Cc2cc(C#N)cs2)C1` (stereo not given) | -0.08099% |

Measurements from “University of Dundee, Small-Polar-MMV Screening Library” (2021), ChEMBL document CHEMBL3988442.